According to article PMC3670934:
No constants are given. Whether binding was seen depends on the method and setting.

Sequences of proteins named here, by UniProt entry; tags and fusion partners are left off. Residues count along the entry.
UniProt P51677: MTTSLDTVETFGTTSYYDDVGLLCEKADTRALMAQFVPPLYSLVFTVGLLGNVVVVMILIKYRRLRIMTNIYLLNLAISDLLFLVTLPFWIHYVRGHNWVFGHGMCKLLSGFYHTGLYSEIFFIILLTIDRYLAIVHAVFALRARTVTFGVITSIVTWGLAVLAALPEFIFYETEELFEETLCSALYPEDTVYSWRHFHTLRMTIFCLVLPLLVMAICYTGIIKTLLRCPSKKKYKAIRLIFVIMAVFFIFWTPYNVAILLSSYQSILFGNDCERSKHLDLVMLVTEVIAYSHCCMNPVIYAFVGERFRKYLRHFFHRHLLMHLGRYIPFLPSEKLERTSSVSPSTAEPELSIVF
UniProt P48061, residues 22-93: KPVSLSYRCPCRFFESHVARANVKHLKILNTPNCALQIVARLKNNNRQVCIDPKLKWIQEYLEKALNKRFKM

Target: Human chemokine receptor CCR3 with a C-terminal 10-His tag (human) (UniProt P51677)
Assay: SPR; Biacore T100; His-tagged hCCR3 immobilised on a Ni-activated NTA sensor chip, chemokine flowed at 30 µl/min; 25°C; 10 mM HEPES, 0.15 M NaCl, 0.1% (wt/vol) DDM, pH 7.4; hCCR3 purified in DDM; 1:1 binding model, KD = kd/ka; both purified

binding: no binding
Substance: commercial recombinant human CXCL12 (PeproTech) (from UniProt P48061 22-93) (ligand)
